No constants are given. Whether binding was seen depends on the method and setting. In cells and extracts the contact can be indirect. Some entries that bind do so weakly or less than the wild type.
Molecular target: DHHC9 in U87 and T98G cells (human) (UniProt Q9Y397)
Assay: co-IP; U87 and T98 cell lysates (50 mM Tris-HCl pH 7.5, 0.1% SDS, 1% Triton X-100, 150 mM NaCl, 1 mM DTT, 0.5 mM EDTA); specific antibodies overnight, protein A or G agarose beads 1 h at 4 °C; immunoblot

By UniProt entry, the sequences of proteins in these tests, tags left out. Where a name states a change or a piece, a line headed by the entry shows the natural chain unless it says otherwise.
UniProt Q9Y397: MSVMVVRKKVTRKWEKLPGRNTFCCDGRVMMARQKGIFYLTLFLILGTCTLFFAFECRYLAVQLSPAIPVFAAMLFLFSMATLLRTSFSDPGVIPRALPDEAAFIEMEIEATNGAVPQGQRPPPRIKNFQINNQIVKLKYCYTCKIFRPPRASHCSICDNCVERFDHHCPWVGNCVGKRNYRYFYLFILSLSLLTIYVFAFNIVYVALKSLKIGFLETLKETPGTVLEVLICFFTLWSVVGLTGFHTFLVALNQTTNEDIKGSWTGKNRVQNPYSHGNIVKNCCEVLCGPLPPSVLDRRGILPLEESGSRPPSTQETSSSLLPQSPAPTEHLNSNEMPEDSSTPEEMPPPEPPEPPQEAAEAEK
UniProt P11166: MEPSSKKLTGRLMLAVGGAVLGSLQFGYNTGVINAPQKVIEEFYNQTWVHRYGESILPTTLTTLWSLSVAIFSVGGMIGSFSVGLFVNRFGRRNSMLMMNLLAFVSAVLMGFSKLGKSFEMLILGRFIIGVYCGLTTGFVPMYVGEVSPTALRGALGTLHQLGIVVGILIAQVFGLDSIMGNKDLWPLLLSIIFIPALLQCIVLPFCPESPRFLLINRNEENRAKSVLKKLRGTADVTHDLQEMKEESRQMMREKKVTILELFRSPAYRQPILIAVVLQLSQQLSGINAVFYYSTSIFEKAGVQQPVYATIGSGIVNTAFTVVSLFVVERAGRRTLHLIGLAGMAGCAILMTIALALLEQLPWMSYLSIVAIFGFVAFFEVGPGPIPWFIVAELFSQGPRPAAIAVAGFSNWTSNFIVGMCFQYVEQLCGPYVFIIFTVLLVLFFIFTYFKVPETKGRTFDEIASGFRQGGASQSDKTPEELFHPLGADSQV

GLUT1 in U87 and T98G cells (from UniProt P11166 1-492)
binding: binds

— paper PMC8497546
